This passage reports binding results from paper PMC12059481.

The chains behind the UniProt entries cited, without tags or fusion partners. Where a name states a change or a piece, a line headed by the entry shows the natural chain unless it says otherwise. A line that says so, or that is headed by a name, gives the form on record, which may keep a tag or linker. Residues count along the entry.
B Box-97 (HMGB1 amino acids 80 to 176) (P09429, residues 80-176): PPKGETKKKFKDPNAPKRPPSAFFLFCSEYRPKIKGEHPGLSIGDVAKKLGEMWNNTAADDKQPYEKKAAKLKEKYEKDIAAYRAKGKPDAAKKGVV
mB Box-97syn (synthetic 97 amino acid peptide, B Box-97 of HMGB1 with C106S) (P09429, form named): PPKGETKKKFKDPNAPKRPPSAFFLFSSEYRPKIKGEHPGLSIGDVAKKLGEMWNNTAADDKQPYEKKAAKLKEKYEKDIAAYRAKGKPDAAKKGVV

No constants are given. Whether binding was seen depends on the method and setting.

Test [1] concerns the target mB Box-97syn (synthetic 97 amino acid peptide, B Box-97 of HMGB1 with C106S) (human) (UniProt P09429). The test is described as follows: cross-linking; B Box-97 or mB Box-97syn alone in the presence of glutaraldehyde (Supplementary Figure S7); both purified.
Test [2] deals with B Box-97 (HMGB1 amino acids 80 to 176) (human) (UniProt P09429). The description is as above.

On to “mB Box-97syn (synthetic 97 amino acid peptide, B Box-97 of HMGB1 with C106S) (from UniProt P09429 80-176)”, for which the binding entry in test [1] is on record as “no binding”.
As to “B Box-97 (HMGB1 amino acids 80 to 176) (from UniProt P09429 80-176) (domain or fragment)”, the binding entry in test [2] is listed as “no binding”.
